Results are given in words; binding and its absence hold for the method and conditions named. For some of these results: In cells and extracts the contact can be indirect. Some results given as binding are weak or reduced against the parent protein; the word gives no strength. Sequences can lack the tags named with a protein.

Amino acid sequences for entries named in this document (tags omitted).
UniProt Q9NVJ2: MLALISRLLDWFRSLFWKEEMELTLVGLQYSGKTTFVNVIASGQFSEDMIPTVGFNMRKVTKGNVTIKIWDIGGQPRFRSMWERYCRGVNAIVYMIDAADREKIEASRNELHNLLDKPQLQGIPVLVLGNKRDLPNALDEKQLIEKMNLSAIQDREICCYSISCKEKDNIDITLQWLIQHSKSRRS

Assay [1] addresses T1, SKIP (yeast two-hybrid fusion) (UniProt Q8IWE5).
T1 sequence: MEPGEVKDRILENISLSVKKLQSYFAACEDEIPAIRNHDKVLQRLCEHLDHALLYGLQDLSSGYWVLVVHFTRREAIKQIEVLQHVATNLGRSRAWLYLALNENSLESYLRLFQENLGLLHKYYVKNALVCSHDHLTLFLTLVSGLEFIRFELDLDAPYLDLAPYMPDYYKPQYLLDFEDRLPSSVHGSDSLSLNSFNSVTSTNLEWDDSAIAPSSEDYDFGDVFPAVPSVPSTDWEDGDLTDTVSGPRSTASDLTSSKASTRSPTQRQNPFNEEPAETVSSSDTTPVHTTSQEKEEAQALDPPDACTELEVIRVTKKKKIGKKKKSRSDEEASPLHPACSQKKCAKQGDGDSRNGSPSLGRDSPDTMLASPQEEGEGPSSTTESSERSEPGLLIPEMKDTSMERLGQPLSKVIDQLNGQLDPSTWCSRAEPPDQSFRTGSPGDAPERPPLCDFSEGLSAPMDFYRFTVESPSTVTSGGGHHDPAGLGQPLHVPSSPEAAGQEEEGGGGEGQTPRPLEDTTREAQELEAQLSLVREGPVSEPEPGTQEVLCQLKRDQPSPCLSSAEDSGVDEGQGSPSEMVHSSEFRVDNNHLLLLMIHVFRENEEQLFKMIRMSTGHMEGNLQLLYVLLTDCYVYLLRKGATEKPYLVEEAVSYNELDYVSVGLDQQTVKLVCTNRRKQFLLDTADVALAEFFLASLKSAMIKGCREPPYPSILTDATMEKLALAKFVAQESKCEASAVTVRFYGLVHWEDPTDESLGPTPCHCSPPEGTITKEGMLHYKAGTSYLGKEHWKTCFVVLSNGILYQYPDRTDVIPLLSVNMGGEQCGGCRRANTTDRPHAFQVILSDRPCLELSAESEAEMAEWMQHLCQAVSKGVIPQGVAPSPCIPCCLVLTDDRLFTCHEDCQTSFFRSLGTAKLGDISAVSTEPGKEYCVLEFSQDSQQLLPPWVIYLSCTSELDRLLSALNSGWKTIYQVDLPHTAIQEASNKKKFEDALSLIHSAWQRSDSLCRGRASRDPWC
The assay is described as follows: two-hybrid; S. cerevisiae AH109 co-transformants (pGBKT7 and pGADT7), grown at 30°C, replated on non-selection (+HIS) and selection (−HIS) plates.

Assay [2] deals with Arl8b (yeast two-hybrid fusion, Arl8b-pGBKT7) (UniProt Q9NVJ2). The description is as above.
Assay [3] addresses GST–Arl8b (UniProt Q9NVJ2). The experiment in a line: pull-down; GST proteins on glutathione-conjugated beads incubated with transfected HeLa cell lysates; immunoblot; only the target purified. In general terms: In western blotting, separated proteins are transferred to a membrane and probed.
The target in assay [4] is GST–Arl8b (UniProt Q9NVJ2). The experiment in a line: pull-down; GST–Arl8b as bait incubated with transfected HEK293T cell lysates; MG132 (2 µM, 12 hours) to restore expression of Vps41-NΔ450; only the target purified.

B1: hVps41 (yeast two-hybrid fusion) (protein, UniProt P49754 1-854)
chain: MAEAEEQETGSLEESTDESEEEESEEEPKLKYERLSNGVTEILQKDAASCMTVHDKFLALGTHYGKVYLLDVQGNITQKFDVSPVKINQISLDESGEHMGVCSEDGKVQVFGLYSGEEFHETFDCPIKIIAVHPHFVRSSCKQFVTGGKKLLLFERSWMNRWKSAVLHEGEGNIRSVKWRGHLIAWANNMGVKIFDIISKQRITNVPRDDISLRPDMYPCSLCWKDNVTLIIGWGTSVKVCSVKERHASEMRDLPSRYVEIVSQFETEFYISGLAPLCDQLVVLSYVKEISEKTEREYCARPRLDIIQPLSETCEEISSDALTVRGFQENECRDYHLEYSEGESLFYIVSPRDVVVAKERDQDDHIDWLLEKKKYEEALMAAEISQKNIKRHKILDIGLAYINHLVERGDYDIAARKCQKILGKNAALWEYEVYKFKEIGQLKAISPYLPRGDPVLKPLIYEMILHEFLESDYEGFATLIREWPGDLYNNSVIVQAVRDHLKKDSQNKTLLKTLAELYTYDKNYGNALEIYLTLRHKDVFQLIHKHNLFSSIKDKIVLLMDFDSEKAVDMLLDNEDKISIKKVVEELEDRPELQHVYLHKLFKRDHHKGQRYHEKQISLYAEYDRPNLLPFLRDSTHCPLEKALEICQQRNFVEETVYLLSRMGNSRSALKMIMEELHDVDKAIEFAKEQDDGELWEDLILYSIDKPPFITGLLNNIGTHVDPILLIHRIKEGMEIPNLRDSLVKILQDYNLQILLREGCKKILVADSLSLLKKMHRTQMKGVLVDEENICESCLSPILPSDAAKPFSVVVFHCRHMFHKECLPMPSMNSAAQFCNICSAKNRGPGSAILEMKK
As for B1, the binding entry in assay [1] was “no binding”; in assay [2] it was “binds”.

B2: HA–Vps41-A187T (protein, UniProt P49754 1-854)
chain: MAEAEEQETGSLEESTDESEEEESEEEPKLKYERLSNGVTEILQKDAASCMTVHDKFLALGTHYGKVYLLDVQGNITQKFDVSPVKINQISLDESGEHMGVCSEDGKVQVFGLYSGEEFHETFDCPIKIIAVHPHFVRSSCKQFVTGGKKLLLFERSWMNRWKSAVLHEGEGNIRSVKWRGHLIAWTNNMGVKIFDIISKQRITNVPRDDISLRPDMYPCSLCWKDNVTLIIGWGTSVKVCSVKERHASEMRDLPSRYVEIVSQFETEFYISGLAPLCDQLVVLSYVKEISEKTEREYCARPRLDIIQPLSETCEEISSDALTVRGFQENECRDYHLEYSEGESLFYIVSPRDVVVAKERDQDDHIDWLLEKKKYEEALMAAEISQKNIKRHKILDIGLAYINHLVERGDYDIAARKCQKILGKNAALWEYEVYKFKEIGQLKAISPYLPRGDPVLKPLIYEMILHEFLESDYEGFATLIREWPGDLYNNSVIVQAVRDHLKKDSQNKTLLKTLAELYTYDKNYGNALEIYLTLRHKDVFQLIHKHNLFSSIKDKIVLLMDFDSEKAVDMLLDNEDKISIKKVVEELEDRPELQHVYLHKLFKRDHHKGQRYHEKQISLYAEYDRPNLLPFLRDSTHCPLEKALEICQQRNFVEETVYLLSRMGNSRSALKMIMEELHDVDKAIEFAKEQDDGELWEDLILYSIDKPPFITGLLNNIGTHVDPILLIHRIKEGMEIPNLRDSLVKILQDYNLQILLREGCKKILVADSLSLLKKMHRTQMKGVLVDEENICESCLSPILPSDAAKPFSVVVFHCRHMFHKECLPMPSMNSAAQFCNICSAKNRGPGSAILEMKK
Turning to B2, the binding result with GST–Arl8b [3] is “binds”.

B3: HA–Vps41 (HEK293T) (protein, UniProt P49754 1-854)
chain: MAEAEEQETGSLEESTDESEEEESEEEPKLKYERLSNGVTEILQKDAASCMTVHDKFLALGTHYGKVYLLDVQGNITQKFDVSPVKINQISLDESGEHMGVCSEDGKVQVFGLYSGEEFHETFDCPIKIIAVHPHFVRSSCKQFVTGGKKLLLFERSWMNRWKSAVLHEGEGNIRSVKWRGHLIAWANNMGVKIFDIISKQRITNVPRDDISLRPDMYPCSLCWKDNVTLIIGWGTSVKVCSVKERHASEMRDLPSRYVEIVSQFETEFYISGLAPLCDQLVVLSYVKEISEKTEREYCARPRLDIIQPLSETCEEISSDALTVRGFQENECRDYHLEYSEGESLFYIVSPRDVVVAKERDQDDHIDWLLEKKKYEEALMAAEISQKNIKRHKILDIGLAYINHLVERGDYDIAARKCQKILGKNAALWEYEVYKFKEIGQLKAISPYLPRGDPVLKPLIYEMILHEFLESDYEGFATLIREWPGDLYNNSVIVQAVRDHLKKDSQNKTLLKTLAELYTYDKNYGNALEIYLTLRHKDVFQLIHKHNLFSSIKDKIVLLMDFDSEKAVDMLLDNEDKISIKKVVEELEDRPELQHVYLHKLFKRDHHKGQRYHEKQISLYAEYDRPNLLPFLRDSTHCPLEKALEICQQRNFVEETVYLLSRMGNSRSALKMIMEELHDVDKAIEFAKEQDDGELWEDLILYSIDKPPFITGLLNNIGTHVDPILLIHRIKEGMEIPNLRDSLVKILQDYNLQILLREGCKKILVADSLSLLKKMHRTQMKGVLVDEENICESCLSPILPSDAAKPFSVVVFHCRHMFHKECLPMPSMNSAAQFCNICSAKNRGPGSAILEMKK
Turning to B3, in the assay with GST–Arl8b [4], the binding entry is given as “binds”.

B4: Vps41-L713X (domain or fragment, UniProt P49754 1-712)
chain: MAEAEEQETGSLEESTDESEEEESEEEPKLKYERLSNGVTEILQKDAASCMTVHDKFLALGTHYGKVYLLDVQGNITQKFDVSPVKINQISLDESGEHMGVCSEDGKVQVFGLYSGEEFHETFDCPIKIIAVHPHFVRSSCKQFVTGGKKLLLFERSWMNRWKSAVLHEGEGNIRSVKWRGHLIAWANNMGVKIFDIISKQRITNVPRDDISLRPDMYPCSLCWKDNVTLIIGWGTSVKVCSVKERHASEMRDLPSRYVEIVSQFETEFYISGLAPLCDQLVVLSYVKEISEKTEREYCARPRLDIIQPLSETCEEISSDALTVRGFQENECRDYHLEYSEGESLFYIVSPRDVVVAKERDQDDHIDWLLEKKKYEEALMAAEISQKNIKRHKILDIGLAYINHLVERGDYDIAARKCQKILGKNAALWEYEVYKFKEIGQLKAISPYLPRGDPVLKPLIYEMILHEFLESDYEGFATLIREWPGDLYNNSVIVQAVRDHLKKDSQNKTLLKTLAELYTYDKNYGNALEIYLTLRHKDVFQLIHKHNLFSSIKDKIVLLMDFDSEKAVDMLLDNEDKISIKKVVEELEDRPELQHVYLHKLFKRDHHKGQRYHEKQISLYAEYDRPNLLPFLRDSTHCPLEKALEICQQRNFVEETVYLLSRMGNSRSALKMIMEELHDVDKAIEFAKEQDDGELWEDLILYSIDKPPFITG
B4: the binding result in the assay with GST–Arl8b [4] is reported as “binds”.

B5: HA-Vps41-NΔ450 (domain or fragment, UniProt P49754 451-854)
chain: RGDPVLKPLIYEMILHEFLESDYEGFATLIREWPGDLYNNSVIVQAVRDHLKKDSQNKTLLKTLAELYTYDKNYGNALEIYLTLRHKDVFQLIHKHNLFSSIKDKIVLLMDFDSEKAVDMLLDNEDKISIKKVVEELEDRPELQHVYLHKLFKRDHHKGQRYHEKQISLYAEYDRPNLLPFLRDSTHCPLEKALEICQQRNFVEETVYLLSRMGNSRSALKMIMEELHDVDKAIEFAKEQDDGELWEDLILYSIDKPPFITGLLNNIGTHVDPILLIHRIKEGMEIPNLRDSLVKILQDYNLQILLREGCKKILVADSLSLLKKMHRTQMKGVLVDEENICESCLSPILPSDAAKPFSVVVFHCRHMFHKECLPMPSMNSAAQFCNICSAKNRGPGSAILEMKK
In the case of B5, the binding entry with GST–Arl8b [4] is reported as “no binding”.

B6: Vps41-L532X (domain or fragment, UniProt P49754 1-531)
chain: MAEAEEQETGSLEESTDESEEEESEEEPKLKYERLSNGVTEILQKDAASCMTVHDKFLALGTHYGKVYLLDVQGNITQKFDVSPVKINQISLDESGEHMGVCSEDGKVQVFGLYSGEEFHETFDCPIKIIAVHPHFVRSSCKQFVTGGKKLLLFERSWMNRWKSAVLHEGEGNIRSVKWRGHLIAWANNMGVKIFDIISKQRITNVPRDDISLRPDMYPCSLCWKDNVTLIIGWGTSVKVCSVKERHASEMRDLPSRYVEIVSQFETEFYISGLAPLCDQLVVLSYVKEISEKTEREYCARPRLDIIQPLSETCEEISSDALTVRGFQENECRDYHLEYSEGESLFYIVSPRDVVVAKERDQDDHIDWLLEKKKYEEALMAAEISQKNIKRHKILDIGLAYINHLVERGDYDIAARKCQKILGKNAALWEYEVYKFKEIGQLKAISPYLPRGDPVLKPLIYEMILHEFLESDYEGFATLIREWPGDLYNNSVIVQAVRDHLKKDSQNKTLLKTLAELYTYDKNYGNALEIY
B6: the binding result with GST–Arl8b [4] is given as “binds”.

The values are drawn from paper PMC4432227.
